Some of the results follow.
Compound: CC1Cc2ccccc2N1C(=O)C1CCCN(C1)C(=O)CCl (mixture of isomers) [TRIM25 ligand 11 (diastereomer mixture)]
Assay: probe-labelled cysteine peptide fold change vs DMSO (competition) (log2 fold change); higher = less target engagement (more negative = stronger competition)
Conditions: THP-1, incubation time: 4 h
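Also: competitive chemoproteomic profiling in live THP-1 cells with an iodoacetamide desthiobiotin (IA-DTB) probe, comparing probe-labelled peptide intensities in compound-treated cells against DMSO-treated controls.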

Amino acid sequences for entries named in this document (tags omitted). A change or cut given only in a name is not applied to a line headed by its entry.
UniProt P46531, whole entry, looked up: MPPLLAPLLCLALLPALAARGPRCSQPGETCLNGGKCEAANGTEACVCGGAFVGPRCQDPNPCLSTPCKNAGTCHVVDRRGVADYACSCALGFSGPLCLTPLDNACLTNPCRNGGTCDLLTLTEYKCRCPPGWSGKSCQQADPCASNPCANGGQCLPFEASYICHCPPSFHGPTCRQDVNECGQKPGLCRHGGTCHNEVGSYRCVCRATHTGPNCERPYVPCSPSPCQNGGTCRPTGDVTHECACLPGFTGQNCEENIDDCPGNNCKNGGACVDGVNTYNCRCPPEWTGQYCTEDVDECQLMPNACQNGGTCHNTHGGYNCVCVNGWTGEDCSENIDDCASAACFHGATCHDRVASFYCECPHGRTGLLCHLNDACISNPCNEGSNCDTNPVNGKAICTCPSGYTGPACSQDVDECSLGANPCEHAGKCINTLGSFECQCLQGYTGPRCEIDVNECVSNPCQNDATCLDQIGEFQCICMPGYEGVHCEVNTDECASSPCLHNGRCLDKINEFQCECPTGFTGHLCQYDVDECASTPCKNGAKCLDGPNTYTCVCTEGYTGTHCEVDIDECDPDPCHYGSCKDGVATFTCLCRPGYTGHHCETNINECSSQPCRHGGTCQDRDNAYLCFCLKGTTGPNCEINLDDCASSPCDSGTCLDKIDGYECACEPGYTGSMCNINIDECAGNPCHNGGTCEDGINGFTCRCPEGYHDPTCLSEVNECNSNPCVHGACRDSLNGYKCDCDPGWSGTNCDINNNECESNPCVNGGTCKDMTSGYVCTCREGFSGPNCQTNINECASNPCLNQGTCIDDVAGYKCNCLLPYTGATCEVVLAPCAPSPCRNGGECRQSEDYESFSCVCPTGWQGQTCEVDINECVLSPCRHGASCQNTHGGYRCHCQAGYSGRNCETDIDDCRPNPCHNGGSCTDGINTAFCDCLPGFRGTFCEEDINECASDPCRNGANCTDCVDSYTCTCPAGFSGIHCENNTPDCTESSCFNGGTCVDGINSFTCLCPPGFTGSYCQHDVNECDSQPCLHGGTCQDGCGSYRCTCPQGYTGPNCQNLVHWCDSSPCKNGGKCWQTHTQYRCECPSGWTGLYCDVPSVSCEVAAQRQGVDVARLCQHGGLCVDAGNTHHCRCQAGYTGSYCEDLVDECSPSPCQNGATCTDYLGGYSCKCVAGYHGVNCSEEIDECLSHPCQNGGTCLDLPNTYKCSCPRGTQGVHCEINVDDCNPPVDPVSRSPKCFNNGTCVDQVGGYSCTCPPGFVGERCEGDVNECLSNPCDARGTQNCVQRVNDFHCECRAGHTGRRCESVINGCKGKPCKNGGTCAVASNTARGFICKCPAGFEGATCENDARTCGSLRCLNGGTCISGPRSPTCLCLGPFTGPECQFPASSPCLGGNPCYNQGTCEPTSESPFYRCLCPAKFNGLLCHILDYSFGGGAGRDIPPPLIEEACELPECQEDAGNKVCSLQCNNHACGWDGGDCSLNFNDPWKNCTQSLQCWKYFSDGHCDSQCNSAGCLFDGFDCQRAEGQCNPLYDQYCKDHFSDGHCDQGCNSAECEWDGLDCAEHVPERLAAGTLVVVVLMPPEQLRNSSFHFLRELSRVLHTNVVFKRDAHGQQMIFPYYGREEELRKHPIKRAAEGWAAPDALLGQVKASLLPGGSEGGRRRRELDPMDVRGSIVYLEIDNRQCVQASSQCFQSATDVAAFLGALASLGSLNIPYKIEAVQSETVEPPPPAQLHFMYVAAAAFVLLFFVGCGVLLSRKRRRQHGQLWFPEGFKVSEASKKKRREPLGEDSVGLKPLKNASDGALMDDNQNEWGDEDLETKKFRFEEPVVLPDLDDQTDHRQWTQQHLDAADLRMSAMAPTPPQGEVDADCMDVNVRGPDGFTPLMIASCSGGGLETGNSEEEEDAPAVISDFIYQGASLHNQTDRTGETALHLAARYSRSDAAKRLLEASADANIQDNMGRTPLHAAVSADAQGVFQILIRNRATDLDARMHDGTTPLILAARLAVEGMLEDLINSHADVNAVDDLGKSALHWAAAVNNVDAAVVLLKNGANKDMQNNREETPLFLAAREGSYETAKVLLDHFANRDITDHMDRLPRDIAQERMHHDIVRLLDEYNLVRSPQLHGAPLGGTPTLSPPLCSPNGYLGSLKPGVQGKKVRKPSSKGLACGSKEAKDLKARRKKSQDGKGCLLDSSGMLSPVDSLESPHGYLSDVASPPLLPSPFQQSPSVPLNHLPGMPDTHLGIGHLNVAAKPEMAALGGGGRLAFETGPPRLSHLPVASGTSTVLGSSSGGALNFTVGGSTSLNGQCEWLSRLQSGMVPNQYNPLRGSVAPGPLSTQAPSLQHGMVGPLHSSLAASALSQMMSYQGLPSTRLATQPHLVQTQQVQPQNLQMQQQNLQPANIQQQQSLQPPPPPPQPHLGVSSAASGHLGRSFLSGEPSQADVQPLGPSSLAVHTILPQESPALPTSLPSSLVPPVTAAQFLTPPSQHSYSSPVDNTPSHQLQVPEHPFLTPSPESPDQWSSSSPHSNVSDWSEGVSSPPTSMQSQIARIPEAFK
UniProt Q86UT6, whole entry, looked up: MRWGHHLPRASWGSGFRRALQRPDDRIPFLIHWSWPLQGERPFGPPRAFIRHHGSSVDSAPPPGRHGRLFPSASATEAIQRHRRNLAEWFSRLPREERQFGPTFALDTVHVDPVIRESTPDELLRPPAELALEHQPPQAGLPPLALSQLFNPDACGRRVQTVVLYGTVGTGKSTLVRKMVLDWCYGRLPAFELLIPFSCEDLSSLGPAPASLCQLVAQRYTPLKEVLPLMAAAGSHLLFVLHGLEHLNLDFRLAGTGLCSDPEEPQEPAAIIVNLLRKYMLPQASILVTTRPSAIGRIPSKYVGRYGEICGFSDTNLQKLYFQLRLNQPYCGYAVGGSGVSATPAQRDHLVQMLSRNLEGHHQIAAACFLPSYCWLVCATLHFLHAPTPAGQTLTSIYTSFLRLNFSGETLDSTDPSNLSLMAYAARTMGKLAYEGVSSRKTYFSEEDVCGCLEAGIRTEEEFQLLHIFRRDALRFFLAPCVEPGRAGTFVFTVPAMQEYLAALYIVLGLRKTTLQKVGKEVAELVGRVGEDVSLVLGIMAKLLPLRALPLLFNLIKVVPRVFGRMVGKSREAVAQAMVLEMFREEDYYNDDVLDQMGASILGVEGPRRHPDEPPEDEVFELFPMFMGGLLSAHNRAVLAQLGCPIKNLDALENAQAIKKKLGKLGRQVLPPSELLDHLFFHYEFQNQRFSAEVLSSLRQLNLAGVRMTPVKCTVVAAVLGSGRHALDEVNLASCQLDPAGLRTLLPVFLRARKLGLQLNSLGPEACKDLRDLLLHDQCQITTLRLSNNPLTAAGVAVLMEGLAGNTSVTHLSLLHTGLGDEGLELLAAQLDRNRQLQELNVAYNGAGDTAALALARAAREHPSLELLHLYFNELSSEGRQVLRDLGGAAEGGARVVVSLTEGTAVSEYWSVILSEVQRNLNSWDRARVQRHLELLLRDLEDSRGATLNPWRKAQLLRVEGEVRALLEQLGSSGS
UniProt O43847: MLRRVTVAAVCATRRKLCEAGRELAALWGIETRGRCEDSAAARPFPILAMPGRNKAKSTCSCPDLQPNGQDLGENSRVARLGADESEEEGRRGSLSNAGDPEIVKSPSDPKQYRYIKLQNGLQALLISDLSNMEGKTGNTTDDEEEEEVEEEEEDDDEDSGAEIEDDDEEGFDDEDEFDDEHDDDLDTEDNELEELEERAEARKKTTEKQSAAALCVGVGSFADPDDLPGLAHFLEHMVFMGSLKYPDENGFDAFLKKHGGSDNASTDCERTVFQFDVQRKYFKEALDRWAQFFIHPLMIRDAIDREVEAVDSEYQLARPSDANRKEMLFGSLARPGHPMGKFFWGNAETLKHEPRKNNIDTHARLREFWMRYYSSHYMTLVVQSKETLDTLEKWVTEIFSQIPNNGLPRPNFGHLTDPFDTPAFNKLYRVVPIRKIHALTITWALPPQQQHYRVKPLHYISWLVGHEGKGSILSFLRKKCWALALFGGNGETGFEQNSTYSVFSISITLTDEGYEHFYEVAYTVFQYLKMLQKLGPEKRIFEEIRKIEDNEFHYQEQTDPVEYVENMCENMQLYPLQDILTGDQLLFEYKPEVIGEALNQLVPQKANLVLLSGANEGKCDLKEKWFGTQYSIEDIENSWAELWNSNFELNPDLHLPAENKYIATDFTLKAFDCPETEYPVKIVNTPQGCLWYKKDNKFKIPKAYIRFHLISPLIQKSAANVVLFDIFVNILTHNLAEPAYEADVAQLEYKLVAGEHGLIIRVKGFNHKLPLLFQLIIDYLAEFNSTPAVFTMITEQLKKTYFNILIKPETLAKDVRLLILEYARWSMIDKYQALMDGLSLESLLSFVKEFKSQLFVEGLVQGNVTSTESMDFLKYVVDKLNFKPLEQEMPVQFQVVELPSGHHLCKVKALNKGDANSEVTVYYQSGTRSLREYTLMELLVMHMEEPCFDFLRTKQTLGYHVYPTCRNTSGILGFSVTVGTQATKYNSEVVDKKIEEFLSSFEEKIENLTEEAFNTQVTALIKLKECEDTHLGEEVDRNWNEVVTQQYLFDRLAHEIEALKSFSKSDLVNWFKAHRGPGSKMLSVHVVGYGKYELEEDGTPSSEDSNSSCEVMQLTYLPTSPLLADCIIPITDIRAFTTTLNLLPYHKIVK
UniProt Q9BVI4: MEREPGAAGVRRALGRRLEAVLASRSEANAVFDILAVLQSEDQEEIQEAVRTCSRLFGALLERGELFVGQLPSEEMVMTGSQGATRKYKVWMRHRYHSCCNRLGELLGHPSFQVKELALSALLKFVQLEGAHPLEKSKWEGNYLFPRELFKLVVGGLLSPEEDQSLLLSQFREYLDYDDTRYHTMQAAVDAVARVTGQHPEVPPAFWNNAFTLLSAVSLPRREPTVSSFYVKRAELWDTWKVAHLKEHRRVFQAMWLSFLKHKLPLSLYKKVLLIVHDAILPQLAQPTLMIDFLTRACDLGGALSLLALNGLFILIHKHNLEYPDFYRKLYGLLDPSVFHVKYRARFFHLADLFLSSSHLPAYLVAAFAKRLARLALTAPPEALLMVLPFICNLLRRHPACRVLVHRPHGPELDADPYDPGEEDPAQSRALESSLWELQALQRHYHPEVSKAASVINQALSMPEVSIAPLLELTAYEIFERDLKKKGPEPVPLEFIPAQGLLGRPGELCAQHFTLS
UniProt O75607: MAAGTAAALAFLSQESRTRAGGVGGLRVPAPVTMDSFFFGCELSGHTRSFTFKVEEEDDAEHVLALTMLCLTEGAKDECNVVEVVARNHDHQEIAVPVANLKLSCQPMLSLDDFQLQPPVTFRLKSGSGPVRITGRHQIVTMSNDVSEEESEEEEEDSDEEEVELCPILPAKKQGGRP
UniProt Q08J23, whole entry, looked up: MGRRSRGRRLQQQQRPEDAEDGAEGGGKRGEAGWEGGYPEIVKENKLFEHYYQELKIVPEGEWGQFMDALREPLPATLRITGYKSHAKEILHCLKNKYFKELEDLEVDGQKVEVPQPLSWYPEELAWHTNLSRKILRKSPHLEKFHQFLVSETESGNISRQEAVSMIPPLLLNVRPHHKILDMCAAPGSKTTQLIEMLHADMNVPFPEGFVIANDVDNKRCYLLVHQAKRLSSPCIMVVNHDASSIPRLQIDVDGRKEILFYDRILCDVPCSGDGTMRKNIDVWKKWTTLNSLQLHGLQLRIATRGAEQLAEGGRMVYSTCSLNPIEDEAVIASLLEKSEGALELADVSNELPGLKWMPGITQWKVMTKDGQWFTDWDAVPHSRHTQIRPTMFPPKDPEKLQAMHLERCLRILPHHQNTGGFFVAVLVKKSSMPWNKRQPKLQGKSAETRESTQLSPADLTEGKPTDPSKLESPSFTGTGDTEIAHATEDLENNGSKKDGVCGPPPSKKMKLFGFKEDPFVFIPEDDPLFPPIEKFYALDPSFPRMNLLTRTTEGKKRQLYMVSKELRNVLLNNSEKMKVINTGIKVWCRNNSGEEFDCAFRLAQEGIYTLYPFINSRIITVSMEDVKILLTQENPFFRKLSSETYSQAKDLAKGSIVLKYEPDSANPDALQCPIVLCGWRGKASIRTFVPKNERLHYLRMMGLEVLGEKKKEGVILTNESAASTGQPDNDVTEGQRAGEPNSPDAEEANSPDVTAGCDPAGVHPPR
UniProt Q969T7: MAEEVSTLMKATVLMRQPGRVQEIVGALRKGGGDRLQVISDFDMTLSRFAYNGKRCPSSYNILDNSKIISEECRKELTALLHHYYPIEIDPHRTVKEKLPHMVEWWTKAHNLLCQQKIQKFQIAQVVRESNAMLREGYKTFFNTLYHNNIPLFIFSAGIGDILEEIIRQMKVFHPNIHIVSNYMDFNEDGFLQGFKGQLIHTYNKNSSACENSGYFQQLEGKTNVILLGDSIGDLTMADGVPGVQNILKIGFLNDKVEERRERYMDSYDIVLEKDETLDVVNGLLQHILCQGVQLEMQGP
UniProt P61916: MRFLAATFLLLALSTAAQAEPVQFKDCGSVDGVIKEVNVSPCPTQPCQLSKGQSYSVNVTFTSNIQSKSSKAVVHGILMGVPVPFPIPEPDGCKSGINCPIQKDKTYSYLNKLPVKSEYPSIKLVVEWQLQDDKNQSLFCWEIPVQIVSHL

Target | probe-labelled cysteine peptide fold change (10 µM) | probe-labelled cysteine peptide fold change (50 µM)
NOTCH1_P46531_1225_GTQGVHCEINVDDCNPPVDPVSR (UniProt P46531) | 0.0133 | -0.21
NRBF2_Q96F24_155_SEPAEPCIGSK (UniProt Q96F24) | -0.177 | -0.199
NLRX1_Q86UT6_713_CTVVAAVLGSGR (UniProt Q86UT6) | -0.136 | 0.223
NME7_Q9Y5B8_242_FTNCTCCIVKPHAVSEGLLGK (UniProt Q9Y5B8) | 0.102 | 0.243
NOTCH1_P46531_1425_FNGLLCHILDYSFGGGAGR (UniProt P46531) | -0.00448 | 0.0732
NRDC_O43847_966_QTLGYHVYPTCR (UniProt O43847) | 0.0395 | 0.0521
NMT1_P30419_483_CPSMGAEK (UniProt P30419) | -0.141 | -0.138
NOL9_Q5SY16_648_TVNCLLVGAIAIPHCVLK (UniProt Q5SY16) | -0.129 | -0.0258
NR2C2AP_Q86WQ0_76_GCLEGSQGTQALHK (UniProt Q86WQ0) | 0.166 | 0.0754
NRDE2_Q9H7Z3_900_AYEHALQDCLGDSCVSNPAPTDSCSR (UniProt Q9H7Z3) | 0.22 | 0.368
NSD2_O96028_207_ESCPNTGR (UniProt O96028) | -0.0691 | -0.102
NOC4L_Q9BVI4_100_YHSCCNR (UniProt Q9BVI4) | 0.0565 | 0.152
NPM3_O75607_79_DECNVVEVVAR (UniProt O75607) | 0.188 | 0.236
NSMAF_Q92636_803+809_EGTVNIWDLTTATLMHQIPCHSGIVCDTAFSPDSR (UniProt Q92636) | -0.00486 | -0.0727
NSDHL_Q15738_132_NVIETCK (UniProt Q15738) | 0.0723 | 0.0879
NOP10_Q9NPE3_28_FDPMGQQTCSAHPAR (UniProt Q9NPE3) | -0.0449 | -0.218
NOP14_P78316_457_CNHPSLAEGNK (UniProt P78316) | 0.352 | -0.0471
NOL10_Q9BSC4_202_VECWDPR (UniProt Q9BSC4) | -0.069 | 0.121
NSMCE2_Q96MF7_185_VCGHTYEEDAIVR (UniProt Q96MF7) | -0.0631 | 0.0833
NSUN2_Q08J23_221_RCYLLVHQAK (UniProt Q08J23) | 0.0106 | 0.24

Target | probe-labelled cysteine peptide fold change (10 µM) | probe-labelled cysteine peptide fold change (50 µM)
NRF1_Q16656_134_VGQQAIVLCISPSKPNPVFK (UniProt Q16656) | -0.088 | -0.181
NT5C3B_Q969T7_73_IISEECR (UniProt Q969T7) | 0.19 | 0.152
NOP56_O00567_52_LVAFCPFASSQVALENANAVSEGVVHEDLR (UniProt O00567) | 0.279 | -0.116
NPLOC4_Q8TAT6_355_HPNMCR (UniProt Q8TAT6) | -0.0774 | -0.041
NPC2_P61916_93_AVVHGILMGVPVPFPIPEPDGCK (UniProt P61916) | -0.0636 | -0.131
NSUN2_Q08J23_184_ILDMCAAPGSK (UniProt Q08J23) | -0.187 | -0.297
NT5C3A_Q9H0P0_120_LVTDECR (UniProt Q9H0P0) | 0.0452 | 0.0745
NQO2_P16083_223_EEPIPCTAHWHFGQ (UniProt P16083) | 0.213 | 0.0669
NMT1_P30419_294_VHLEGIFQAVYTAGVVLPKPVGTCR (UniProt P30419) | -0.136 | 0.128
NOC4L_Q9BVI4_100_HRYHSCCNR (UniProt Q9BVI4) | -0.154 | -0.136
NKIRAS2_Q9NYR9_10_VVVCGQASVGK (UniProt Q9NYR9) | 0.0468 | 0.0556
NPLOC4_Q8TAT6_130_SRDPQLCR (UniProt Q8TAT6) | -0.0465 | -0.0731
NRDC_O43847_906_LNFKPLEQEMPVQFQVVELPSGHHLCK (UniProt O43847) | 0.114 | 0.0532
NT5C2_P49902_121_VDAYGNLLVCAHGFNFIR (UniProt P49902) | 0.129 | 0.15
NR2C1_P13056_200_SSNCAASTEK (UniProt P13056) | -0.12 | -0.163
NLRX1_Q86UT6_767_KLGLQLNSLGPEACK (UniProt Q86UT6) | -0.0963 | -0.00779
NT5C3B_Q969T7_56_CPSSYNILDNSK (UniProt Q969T7) | 0.035 | 0.00944
NSUN6_Q8TEA1_242_ILDLCAAPGGK (UniProt Q8TEA1) | 0.157 | -0.0703
NOP9_Q86U38_242_TPAQECKPADFEVPETFLNR (UniProt Q86U38) | 0.0762 | 0.0449
